Assay results taken from article doi:10.1101/2022.07.25.501345.
Results are given in words; binding and its absence hold for the method and conditions named. In cells and extracts the contact can be indirect. Some results given as binding are weak or reduced against the parent protein; the word gives no strength.

The chains behind the UniProt entries cited, without tags or fusion partners.
UniProt P09884: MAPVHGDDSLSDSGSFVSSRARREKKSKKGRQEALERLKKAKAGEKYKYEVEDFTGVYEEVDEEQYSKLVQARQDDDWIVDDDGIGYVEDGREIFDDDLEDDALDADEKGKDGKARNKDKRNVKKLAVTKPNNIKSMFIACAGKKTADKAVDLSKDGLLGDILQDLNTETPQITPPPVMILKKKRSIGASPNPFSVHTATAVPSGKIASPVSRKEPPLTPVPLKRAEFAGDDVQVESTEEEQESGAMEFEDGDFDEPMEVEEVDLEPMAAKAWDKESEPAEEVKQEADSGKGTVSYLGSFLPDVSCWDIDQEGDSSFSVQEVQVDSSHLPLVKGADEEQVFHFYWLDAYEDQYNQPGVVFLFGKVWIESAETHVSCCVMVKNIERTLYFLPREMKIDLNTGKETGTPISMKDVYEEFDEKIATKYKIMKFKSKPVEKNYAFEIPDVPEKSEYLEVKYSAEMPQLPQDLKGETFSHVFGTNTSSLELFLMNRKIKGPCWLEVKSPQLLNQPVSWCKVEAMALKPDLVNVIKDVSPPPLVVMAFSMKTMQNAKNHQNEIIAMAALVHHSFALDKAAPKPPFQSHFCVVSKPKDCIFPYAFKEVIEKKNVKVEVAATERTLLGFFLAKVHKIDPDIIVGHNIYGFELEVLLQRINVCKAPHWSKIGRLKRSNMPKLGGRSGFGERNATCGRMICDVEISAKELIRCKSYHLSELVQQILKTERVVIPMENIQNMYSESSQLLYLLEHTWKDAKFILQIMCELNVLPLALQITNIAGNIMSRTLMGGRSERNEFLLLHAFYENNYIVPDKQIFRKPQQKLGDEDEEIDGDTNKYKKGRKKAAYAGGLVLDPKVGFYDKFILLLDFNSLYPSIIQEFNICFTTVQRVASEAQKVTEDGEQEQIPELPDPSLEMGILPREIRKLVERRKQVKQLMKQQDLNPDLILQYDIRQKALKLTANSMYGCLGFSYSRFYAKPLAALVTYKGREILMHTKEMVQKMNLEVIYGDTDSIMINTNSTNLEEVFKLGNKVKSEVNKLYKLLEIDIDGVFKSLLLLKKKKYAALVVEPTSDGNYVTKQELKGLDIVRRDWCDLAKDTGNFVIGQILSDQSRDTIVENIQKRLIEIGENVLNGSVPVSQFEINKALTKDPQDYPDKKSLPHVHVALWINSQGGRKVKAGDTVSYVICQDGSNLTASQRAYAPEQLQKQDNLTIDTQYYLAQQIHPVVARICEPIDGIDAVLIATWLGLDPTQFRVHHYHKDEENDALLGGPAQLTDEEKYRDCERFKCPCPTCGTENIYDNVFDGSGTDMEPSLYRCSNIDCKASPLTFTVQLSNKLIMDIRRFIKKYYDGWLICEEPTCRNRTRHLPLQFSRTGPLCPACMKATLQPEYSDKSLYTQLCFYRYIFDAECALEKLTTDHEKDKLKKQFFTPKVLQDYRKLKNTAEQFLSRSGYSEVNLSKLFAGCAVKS
UniProt P15927: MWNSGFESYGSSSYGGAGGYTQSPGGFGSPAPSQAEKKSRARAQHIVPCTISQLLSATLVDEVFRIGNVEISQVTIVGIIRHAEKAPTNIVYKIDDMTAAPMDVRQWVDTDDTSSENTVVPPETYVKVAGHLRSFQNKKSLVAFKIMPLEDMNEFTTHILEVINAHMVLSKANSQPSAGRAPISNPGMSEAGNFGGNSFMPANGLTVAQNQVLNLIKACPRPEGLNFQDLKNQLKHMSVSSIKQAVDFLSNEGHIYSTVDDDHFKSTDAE

B1: PRIM2 (protein, UniProt P49643 1-509)
chain: MEFSGRKWRKLRLAGDQRNASYPHCLQFYLQPPSENISLIEFENLAIDRVKLLKSVENLGVSYVKGTEQYQSKLESELRKLKFSYRENLEDEYEPRRRDHISHFILRLAYCQSEELRRWFIQQEMDLLRFRFSILPKDKIQDFLKDSQLQFEAISDEEKTLREQEIVASSPSLSGLKLGFESIYKIPFADALDLFRGRKVYLEDGFAYVPLKDIVAIILNEFRAKLSKALALTARSLPAVQSDERLQPLLNHLSHSYTGQDYSTQGNVGKISLDQIDLLSTKSFPPCMRQLHKALRENHHLRHGGRMQYGLFLKGIGLTLEQALQFWKQEFIKGKMDPDKFDKGYSYNIRHSFGKEGKRTDYTPFSCLKIILSNPPSQGDYHGCPFRHSDPELLKQKLQSYKISPGGISQILDLVKGTHYQVACQKYFEMIHNVDDCGFSLNHPNQFFCESQRILNGGKDIKKEPIQPETPQPKPSVQKTKDASSALASLNSSLEMDMEGLEDYFSEDS

Assays:
Assay in all cases: co-IP
[1] = target: T1, UFD1L (human (endogenous in HCT116)) (UniProt Q92890)
T1 sequence: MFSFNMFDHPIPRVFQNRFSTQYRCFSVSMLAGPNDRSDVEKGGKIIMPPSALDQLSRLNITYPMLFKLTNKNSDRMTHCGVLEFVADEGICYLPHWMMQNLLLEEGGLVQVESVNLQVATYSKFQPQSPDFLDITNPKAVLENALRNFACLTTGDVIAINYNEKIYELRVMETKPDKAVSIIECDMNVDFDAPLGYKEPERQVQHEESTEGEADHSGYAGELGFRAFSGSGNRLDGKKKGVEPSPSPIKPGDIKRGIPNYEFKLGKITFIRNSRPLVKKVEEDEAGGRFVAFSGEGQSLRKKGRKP

[2] = target: T2, PRIM2 (human (endogenous in HCT116)) (UniProt P49643)
T2 sequence: B1 chain

[3] = target: VCP/p97 (human (endogenous in HCT116)) (UniProt P55072)

| Molecule | binding [1] | binding [2] | binding [3] |
| --- | --- | --- | --- |
| POLA1 (from UniProt P09884 1-1462) | binds |  |  |
| RPA2 (from UniProt P15927 1-270) |  | no binding | no binding |
| B1 | binds |  |  |
